Results on one substance are retold here after PMC8734419.

Sequences of proteins named here, by UniProt entry; tags and fusion partners are left off. Residues count along the entry.
UniProt P02751, residues 32-2477: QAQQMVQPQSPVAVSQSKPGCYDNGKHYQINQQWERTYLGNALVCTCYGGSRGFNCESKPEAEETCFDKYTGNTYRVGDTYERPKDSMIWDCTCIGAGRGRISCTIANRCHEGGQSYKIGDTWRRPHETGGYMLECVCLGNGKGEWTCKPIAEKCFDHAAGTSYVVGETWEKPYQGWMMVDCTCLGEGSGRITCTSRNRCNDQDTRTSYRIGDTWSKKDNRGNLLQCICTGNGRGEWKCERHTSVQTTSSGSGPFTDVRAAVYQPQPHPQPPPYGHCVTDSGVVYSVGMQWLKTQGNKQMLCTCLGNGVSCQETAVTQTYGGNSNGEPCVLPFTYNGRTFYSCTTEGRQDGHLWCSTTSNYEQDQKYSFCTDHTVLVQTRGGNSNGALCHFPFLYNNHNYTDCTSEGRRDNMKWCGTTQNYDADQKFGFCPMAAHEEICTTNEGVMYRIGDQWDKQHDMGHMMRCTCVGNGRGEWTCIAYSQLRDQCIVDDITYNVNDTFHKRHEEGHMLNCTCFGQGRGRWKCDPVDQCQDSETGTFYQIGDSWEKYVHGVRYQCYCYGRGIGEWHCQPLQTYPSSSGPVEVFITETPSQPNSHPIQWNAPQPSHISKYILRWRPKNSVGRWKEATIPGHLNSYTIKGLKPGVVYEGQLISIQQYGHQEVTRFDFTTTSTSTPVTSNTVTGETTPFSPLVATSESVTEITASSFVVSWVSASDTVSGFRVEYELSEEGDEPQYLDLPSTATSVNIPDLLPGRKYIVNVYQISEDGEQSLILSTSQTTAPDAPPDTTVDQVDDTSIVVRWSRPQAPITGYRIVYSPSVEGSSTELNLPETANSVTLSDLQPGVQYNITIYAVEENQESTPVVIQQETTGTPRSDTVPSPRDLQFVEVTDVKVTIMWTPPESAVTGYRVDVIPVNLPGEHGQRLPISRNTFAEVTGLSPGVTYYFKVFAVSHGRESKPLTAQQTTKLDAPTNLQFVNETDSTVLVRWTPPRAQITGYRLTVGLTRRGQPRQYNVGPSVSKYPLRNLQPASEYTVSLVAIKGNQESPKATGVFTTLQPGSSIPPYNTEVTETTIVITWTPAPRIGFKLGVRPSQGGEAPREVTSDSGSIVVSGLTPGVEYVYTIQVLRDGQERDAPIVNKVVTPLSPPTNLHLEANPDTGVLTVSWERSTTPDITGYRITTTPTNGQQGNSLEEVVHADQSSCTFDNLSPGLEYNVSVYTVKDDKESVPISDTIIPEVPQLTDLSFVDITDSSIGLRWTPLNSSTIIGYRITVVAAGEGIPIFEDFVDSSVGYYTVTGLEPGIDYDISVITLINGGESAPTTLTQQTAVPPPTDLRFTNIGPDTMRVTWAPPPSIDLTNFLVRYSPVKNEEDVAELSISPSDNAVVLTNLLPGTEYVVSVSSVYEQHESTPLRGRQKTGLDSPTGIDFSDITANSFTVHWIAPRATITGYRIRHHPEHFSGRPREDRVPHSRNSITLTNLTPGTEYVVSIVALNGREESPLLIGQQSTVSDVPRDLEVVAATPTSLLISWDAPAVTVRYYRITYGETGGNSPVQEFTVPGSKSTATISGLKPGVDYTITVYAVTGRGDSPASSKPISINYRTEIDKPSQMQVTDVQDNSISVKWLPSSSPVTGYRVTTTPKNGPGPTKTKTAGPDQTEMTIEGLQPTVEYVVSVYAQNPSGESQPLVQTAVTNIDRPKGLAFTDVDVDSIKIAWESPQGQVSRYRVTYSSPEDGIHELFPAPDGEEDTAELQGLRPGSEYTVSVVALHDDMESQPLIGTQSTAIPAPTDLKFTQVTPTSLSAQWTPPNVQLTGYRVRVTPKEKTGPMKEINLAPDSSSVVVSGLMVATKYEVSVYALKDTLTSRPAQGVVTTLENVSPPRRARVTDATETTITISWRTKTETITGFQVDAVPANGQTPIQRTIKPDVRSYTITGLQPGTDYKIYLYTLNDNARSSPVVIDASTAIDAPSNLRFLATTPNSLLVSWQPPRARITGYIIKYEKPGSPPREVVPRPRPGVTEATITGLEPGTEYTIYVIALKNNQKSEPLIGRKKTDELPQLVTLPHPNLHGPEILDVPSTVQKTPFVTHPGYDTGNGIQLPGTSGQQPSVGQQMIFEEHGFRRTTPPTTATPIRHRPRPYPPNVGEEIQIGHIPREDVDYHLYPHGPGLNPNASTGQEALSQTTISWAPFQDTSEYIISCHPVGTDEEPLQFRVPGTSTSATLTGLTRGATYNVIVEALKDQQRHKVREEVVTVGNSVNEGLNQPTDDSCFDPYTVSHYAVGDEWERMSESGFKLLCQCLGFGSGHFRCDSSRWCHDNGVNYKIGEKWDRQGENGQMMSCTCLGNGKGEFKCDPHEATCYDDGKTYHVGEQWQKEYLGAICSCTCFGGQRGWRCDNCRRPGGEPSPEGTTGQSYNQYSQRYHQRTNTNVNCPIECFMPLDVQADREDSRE

This assay deals with T1, B7-H3 (human (endogenous in MGC-803 and MKN-45)) (UniProt Q5ZPR3).
T1 sequence: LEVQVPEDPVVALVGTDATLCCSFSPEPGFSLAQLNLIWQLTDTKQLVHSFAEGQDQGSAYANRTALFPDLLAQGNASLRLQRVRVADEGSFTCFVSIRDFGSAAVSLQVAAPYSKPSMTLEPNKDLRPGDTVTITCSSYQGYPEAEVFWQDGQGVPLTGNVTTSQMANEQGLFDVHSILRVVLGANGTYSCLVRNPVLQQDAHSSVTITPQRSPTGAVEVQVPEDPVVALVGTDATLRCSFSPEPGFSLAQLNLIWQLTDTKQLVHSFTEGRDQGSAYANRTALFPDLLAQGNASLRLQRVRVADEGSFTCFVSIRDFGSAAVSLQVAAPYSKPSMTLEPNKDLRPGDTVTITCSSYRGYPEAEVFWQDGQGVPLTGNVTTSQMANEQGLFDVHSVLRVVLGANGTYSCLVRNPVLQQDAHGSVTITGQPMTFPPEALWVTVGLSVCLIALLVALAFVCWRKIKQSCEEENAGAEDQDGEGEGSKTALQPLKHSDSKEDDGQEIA
Nature of the assay: co-IP; lysates of MGC-803 and MKN-45 cells (IP lysis buffer), IgG and Protein A+G agarose; Western blot with anti-B7-H3 and anti-FN antibodies.

Results are given in words; binding and its absence hold for the method and conditions named. In cells and extracts the contact can be indirect. Some binding calls cover weakened binding; strength is not graded here.

For the substance “Fibronectin (from UniProt P02751 32-2477)”, the binding result is recorded as “binds”.
